{"sequences": {"note": "By UniProt entry, the sequences of proteins in these tests, tags left out.", "UniProt Q12778": "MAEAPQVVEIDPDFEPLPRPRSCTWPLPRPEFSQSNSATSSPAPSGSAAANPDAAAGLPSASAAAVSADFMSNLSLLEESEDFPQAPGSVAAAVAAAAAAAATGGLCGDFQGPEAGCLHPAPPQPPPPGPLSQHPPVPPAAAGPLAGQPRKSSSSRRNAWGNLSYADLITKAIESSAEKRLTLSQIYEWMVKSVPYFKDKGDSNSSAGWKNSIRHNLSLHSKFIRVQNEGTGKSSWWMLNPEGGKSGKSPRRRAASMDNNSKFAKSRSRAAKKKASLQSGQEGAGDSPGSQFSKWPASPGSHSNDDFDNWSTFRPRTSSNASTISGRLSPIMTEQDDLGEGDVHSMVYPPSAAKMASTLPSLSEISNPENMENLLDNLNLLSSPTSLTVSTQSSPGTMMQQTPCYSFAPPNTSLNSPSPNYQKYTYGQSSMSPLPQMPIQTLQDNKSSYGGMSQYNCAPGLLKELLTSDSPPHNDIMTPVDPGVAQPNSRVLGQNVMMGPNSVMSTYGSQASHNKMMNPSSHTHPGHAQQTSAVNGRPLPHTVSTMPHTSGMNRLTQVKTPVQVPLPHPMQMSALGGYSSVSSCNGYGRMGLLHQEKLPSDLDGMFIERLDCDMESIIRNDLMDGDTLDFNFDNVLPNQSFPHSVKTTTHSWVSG"}, "source": "paper PMC11443667", "target": "T1, APPL1 (human (endogenous in HUVEC)) (UniProt Q9UKG1)", "T1 sequence": "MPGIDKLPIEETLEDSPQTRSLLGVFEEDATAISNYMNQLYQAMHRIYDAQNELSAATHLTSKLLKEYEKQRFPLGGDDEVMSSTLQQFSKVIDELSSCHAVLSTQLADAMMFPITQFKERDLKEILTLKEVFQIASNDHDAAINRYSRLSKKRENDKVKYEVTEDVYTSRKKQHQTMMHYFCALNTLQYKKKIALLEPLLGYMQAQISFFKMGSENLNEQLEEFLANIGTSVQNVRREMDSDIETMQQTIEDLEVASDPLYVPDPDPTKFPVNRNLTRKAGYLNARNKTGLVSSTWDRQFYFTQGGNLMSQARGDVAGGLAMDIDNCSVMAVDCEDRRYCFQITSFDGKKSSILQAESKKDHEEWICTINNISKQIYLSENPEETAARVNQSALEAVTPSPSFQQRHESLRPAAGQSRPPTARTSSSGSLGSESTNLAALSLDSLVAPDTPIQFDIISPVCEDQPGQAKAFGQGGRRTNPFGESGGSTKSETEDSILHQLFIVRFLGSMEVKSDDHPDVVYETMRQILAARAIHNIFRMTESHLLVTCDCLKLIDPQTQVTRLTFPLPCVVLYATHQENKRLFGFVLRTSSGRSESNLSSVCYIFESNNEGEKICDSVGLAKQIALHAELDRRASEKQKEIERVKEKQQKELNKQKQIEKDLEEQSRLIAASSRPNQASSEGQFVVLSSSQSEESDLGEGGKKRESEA", "test": "co-IP; co-immunoprecipitation of APPL1 and Foxo1, with or without APN treatment; cells, antibodies and direction not told in the main text (Figure S6)", "note": "No constants are given. Whether binding was seen depends on the method and setting. Binding seen in cells or lysates may run through a third protein. Some results given as binding are weak or reduced against the parent protein; the word gives no strength."}
{"substance": "Foxo1 (from UniProt Q12778 1-655)", "values": [{"measurement": "binding", "value": "binds"}]}
